From publication PMC4091708
Like-named read-outs stand apart in the source and are kept apart here. These are yes or no findings as the source states them, for the method shown. Binding seen in cells or lysates may run through a third protein. Some results given as binding are weak or reduced against the parent protein; the word gives no strength. Tags and fused reporters may be left off the sequences shown. Values belong to the molecule of their own block, whether it stands above or below them.

The chains behind the UniProt entries cited, without tags or fusion partners. Residues count along the entry.
UniProt P18537, residues 19-581: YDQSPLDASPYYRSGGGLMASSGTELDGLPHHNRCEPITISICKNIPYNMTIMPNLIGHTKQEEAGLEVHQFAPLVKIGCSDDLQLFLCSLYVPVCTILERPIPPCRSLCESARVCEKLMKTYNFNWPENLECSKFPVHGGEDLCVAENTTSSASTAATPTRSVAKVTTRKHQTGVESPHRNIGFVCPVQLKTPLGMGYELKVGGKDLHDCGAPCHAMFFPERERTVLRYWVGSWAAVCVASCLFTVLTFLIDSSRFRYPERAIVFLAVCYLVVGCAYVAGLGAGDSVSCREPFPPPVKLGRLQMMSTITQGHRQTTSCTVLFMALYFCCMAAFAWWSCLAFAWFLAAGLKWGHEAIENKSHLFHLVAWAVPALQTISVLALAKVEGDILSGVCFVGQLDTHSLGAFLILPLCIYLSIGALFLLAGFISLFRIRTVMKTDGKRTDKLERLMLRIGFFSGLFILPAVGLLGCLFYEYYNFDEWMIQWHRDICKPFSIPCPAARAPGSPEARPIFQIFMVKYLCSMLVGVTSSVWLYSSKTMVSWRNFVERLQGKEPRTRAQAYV

How the values were obtained:
Assay in all cases: co-IP; epitope-tagged proteins co-overexpressed by transient transfection in S2r+ cells; lysis in 50 mM Tris-Cl pH 7,5, 150 mM NaCl, 1% NP40, 0.2% Na-Deoxycholate with protease inhibitors; anti-Myc or anti-GFP IP overnight at 4°C on Protein A/G Sepharose; Western blot for the other tag
[1] = target: T1, Otk-GFP (GFP-tagged Off-track) (Drosophila melanogaster) (UniProt Q6AWJ9)
T1 sequence: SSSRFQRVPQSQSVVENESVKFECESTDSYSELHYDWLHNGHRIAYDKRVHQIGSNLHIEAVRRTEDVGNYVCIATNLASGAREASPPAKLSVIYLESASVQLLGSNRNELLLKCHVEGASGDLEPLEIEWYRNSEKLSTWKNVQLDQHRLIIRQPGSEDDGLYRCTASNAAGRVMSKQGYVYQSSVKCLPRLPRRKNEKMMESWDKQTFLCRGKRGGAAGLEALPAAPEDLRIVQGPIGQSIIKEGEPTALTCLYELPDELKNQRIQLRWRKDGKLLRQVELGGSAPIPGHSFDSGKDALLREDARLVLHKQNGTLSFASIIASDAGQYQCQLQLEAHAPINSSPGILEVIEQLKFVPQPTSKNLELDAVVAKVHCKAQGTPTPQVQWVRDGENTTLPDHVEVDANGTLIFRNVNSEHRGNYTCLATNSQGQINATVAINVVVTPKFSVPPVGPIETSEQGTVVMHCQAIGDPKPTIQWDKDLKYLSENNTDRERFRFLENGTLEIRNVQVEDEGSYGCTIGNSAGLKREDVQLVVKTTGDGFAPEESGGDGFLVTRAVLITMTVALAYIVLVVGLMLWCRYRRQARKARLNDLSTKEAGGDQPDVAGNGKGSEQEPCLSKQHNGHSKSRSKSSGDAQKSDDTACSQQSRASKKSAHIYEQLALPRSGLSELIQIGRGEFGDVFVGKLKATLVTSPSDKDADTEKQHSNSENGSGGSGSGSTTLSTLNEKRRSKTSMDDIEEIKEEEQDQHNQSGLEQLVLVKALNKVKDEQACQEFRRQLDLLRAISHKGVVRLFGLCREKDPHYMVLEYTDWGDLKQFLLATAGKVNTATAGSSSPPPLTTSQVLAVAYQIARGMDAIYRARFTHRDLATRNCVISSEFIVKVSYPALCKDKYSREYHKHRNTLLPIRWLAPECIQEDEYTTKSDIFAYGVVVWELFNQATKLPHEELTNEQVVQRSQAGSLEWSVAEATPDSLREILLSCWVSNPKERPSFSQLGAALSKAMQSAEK

[2] = target: T2, OtkDeltaCy-Myc (Myc-tagged Otk lacking the cytoplasmic domain, aa 776–1033) (Drosophila melanogaster) (UniProt Q6AWJ9)
T2 sequence: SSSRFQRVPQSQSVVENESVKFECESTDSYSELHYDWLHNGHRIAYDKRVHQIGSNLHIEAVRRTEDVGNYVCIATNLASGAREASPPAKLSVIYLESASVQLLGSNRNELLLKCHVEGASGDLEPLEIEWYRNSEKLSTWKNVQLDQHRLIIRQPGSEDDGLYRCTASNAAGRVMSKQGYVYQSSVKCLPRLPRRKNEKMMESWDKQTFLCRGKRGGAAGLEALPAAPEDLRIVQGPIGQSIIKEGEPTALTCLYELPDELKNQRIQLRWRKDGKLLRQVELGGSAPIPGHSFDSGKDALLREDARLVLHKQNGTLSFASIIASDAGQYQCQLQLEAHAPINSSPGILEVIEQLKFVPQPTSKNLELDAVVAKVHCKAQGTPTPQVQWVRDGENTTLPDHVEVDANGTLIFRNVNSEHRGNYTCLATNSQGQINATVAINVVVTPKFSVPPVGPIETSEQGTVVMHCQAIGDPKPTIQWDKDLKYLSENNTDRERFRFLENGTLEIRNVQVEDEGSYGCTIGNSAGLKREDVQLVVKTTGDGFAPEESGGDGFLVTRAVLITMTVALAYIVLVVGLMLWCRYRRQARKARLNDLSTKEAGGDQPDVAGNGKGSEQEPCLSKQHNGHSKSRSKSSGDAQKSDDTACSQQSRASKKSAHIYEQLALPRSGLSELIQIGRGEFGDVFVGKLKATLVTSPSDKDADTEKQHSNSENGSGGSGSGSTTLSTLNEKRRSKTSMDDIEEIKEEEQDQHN

[3] = target: T3, OtkDeltaEx-Myc (Myc-tagged Otk lacking the extracellular domain, aa 2–474) (Drosophila melanogaster) (UniProt Q6AWJ9)
T3 sequence: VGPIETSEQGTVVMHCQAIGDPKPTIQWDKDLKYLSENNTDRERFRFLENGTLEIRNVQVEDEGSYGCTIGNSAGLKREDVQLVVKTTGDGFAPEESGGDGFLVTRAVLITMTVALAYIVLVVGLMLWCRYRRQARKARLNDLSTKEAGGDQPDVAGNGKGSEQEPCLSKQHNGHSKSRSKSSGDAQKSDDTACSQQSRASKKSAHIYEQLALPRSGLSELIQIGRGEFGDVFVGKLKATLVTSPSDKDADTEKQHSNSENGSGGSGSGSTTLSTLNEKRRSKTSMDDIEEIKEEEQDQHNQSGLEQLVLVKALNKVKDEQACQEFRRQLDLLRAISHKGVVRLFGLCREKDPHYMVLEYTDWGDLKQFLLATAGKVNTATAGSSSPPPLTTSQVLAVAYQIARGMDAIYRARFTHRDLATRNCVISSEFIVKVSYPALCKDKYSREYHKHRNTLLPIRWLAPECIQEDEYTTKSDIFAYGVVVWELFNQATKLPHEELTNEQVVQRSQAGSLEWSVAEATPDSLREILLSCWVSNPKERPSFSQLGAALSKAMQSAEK

[4] = target: T4, Otk-Myc (Myc-tagged Off-track) (Drosophila melanogaster) (UniProt Q6AWJ9)
T4 sequence: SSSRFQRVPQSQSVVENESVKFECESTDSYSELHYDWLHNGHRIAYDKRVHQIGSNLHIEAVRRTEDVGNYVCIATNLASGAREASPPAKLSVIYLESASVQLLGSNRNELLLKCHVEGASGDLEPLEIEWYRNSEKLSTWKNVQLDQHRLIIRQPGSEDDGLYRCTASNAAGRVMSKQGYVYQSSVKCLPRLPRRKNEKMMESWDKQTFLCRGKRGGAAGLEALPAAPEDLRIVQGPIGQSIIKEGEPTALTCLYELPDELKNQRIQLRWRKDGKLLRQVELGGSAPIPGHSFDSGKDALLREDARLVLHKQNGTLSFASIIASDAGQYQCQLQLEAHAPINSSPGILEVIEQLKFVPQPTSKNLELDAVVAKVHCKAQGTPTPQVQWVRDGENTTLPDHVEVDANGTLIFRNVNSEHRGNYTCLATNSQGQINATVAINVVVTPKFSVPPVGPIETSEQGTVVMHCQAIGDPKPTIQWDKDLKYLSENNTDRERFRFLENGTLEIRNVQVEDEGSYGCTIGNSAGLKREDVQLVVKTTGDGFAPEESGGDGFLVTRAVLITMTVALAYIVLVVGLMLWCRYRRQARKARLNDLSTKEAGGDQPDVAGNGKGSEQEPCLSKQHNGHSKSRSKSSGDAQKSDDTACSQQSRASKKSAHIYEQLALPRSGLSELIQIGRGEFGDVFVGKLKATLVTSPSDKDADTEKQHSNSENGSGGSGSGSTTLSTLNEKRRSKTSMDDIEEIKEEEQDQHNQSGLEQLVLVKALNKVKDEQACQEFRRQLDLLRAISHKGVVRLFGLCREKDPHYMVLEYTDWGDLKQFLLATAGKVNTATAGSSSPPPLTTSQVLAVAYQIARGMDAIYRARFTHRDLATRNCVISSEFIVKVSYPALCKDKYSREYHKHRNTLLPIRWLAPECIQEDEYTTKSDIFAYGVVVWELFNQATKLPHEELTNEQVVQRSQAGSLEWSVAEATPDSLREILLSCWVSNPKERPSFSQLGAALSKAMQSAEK

[5] = target: T1, Otk-GFP (GFP-tagged Off-track) (Drosophila melanogaster); remark: listed apart in the source

- binding [1]: binds
Molecule: Fz1-Myc (Myc-tagged Frizzled) (from UniProt P18537 19-581) (receptor)

- binding [2]: binds
- binding [3]: binds
- binding [4]: binds
B1: Otk-GFP (GFP-tagged Off-track) (receptor, UniProt Q6AWJ9 23-1033)
chain: SSSRFQRVPQSQSVVENESVKFECESTDSYSELHYDWLHNGHRIAYDKRVHQIGSNLHIEAVRRTEDVGNYVCIATNLASGAREASPPAKLSVIYLESASVQLLGSNRNELLLKCHVEGASGDLEPLEIEWYRNSEKLSTWKNVQLDQHRLIIRQPGSEDDGLYRCTASNAAGRVMSKQGYVYQSSVKCLPRLPRRKNEKMMESWDKQTFLCRGKRGGAAGLEALPAAPEDLRIVQGPIGQSIIKEGEPTALTCLYELPDELKNQRIQLRWRKDGKLLRQVELGGSAPIPGHSFDSGKDALLREDARLVLHKQNGTLSFASIIASDAGQYQCQLQLEAHAPINSSPGILEVIEQLKFVPQPTSKNLELDAVVAKVHCKAQGTPTPQVQWVRDGENTTLPDHVEVDANGTLIFRNVNSEHRGNYTCLATNSQGQINATVAINVVVTPKFSVPPVGPIETSEQGTVVMHCQAIGDPKPTIQWDKDLKYLSENNTDRERFRFLENGTLEIRNVQVEDEGSYGCTIGNSAGLKREDVQLVVKTTGDGFAPEESGGDGFLVTRAVLITMTVALAYIVLVVGLMLWCRYRRQARKARLNDLSTKEAGGDQPDVAGNGKGSEQEPCLSKQHNGHSKSRSKSSGDAQKSDDTACSQQSRASKKSAHIYEQLALPRSGLSELIQIGRGEFGDVFVGKLKATLVTSPSDKDADTEKQHSNSENGSGGSGSGSTTLSTLNEKRRSKTSMDDIEEIKEEEQDQHNQSGLEQLVLVKALNKVKDEQACQEFRRQLDLLRAISHKGVVRLFGLCREKDPHYMVLEYTDWGDLKQFLLATAGKVNTATAGSSSPPPLTTSQVLAVAYQIARGMDAIYRARFTHRDLATRNCVISSEFIVKVSYPALCKDKYSREYHKHRNTLLPIRWLAPECIQEDEYTTKSDIFAYGVVVWELFNQATKLPHEELTNEQVVQRSQAGSLEWSVAEATPDSLREILLSCWVSNPKERPSFSQLGAALSKAMQSAEK

- binding [5]: binds
B2: Wnt2-Myc (Myc-tagged Drosophila Wnt2) (ligand, UniProt P28465 24-352)
chain: FTSVMLCGRIPGLTPGQRNMCREMPDALIALGEGHQLGAQECQHQFRGHRWNCSEVWQRNVFAHVIPTASREAAYTYAIASAGAAYAVTAACARGNISTCGCDVRHKATPTGGGTPDEPWKWGGCSADVDFGMRYARRFMDARELERDSRTLMNLHNNRAGRTLVKKMLRTDCKCHGVSGSCVMKTCWKSLPPFRLVGDRLMLKYQKAKTVQAVKGKRGLRLVLSRKKHAGTARAQKPVLDWPKRMELIYLEASPNYCERSLQTGSQGTSGRTCQRTGHGPQSCDLLCCGRGHNTQHIRRTTQCRCQFRWCCEVKCDECDESYEEFTCK

- binding [5]: binds
B3: Fz2-Myc (Myc-tagged Frizzled2) (receptor, UniProt Q9VVX3 23-694)
chain: DGPLHSADHGMGGMGMGGHGLDASPAPGYGVPVIPKDPNLRCEEITIPMCRGIGYNMTSFPNEMNHETQDEAGLEVHQFWPLVEIKCSPDLKFFLCSMYTPICLEDYHKPLPVCRSVCERARSGCAPIMQQYSFEWPERMACEHLPLHGDPDNLCMEQPSYTEAGSGGSSGGSGGSGSGSGSGGKRKQGGSGSGGSGAGGSSGSTSTKPCRGRNSKNCQNPQGEKASGKECSCSCRSPLIFLGKEQLLQQQSQMPMMHHPHHWYMNLTVQRIAGVPNCGIPCKGPFFSNDEKDFAGLWIALWSGLCFCSTLMTLTTFIIDTERFKYPERPIVFLSACYFMVAVGYLSRNFLQNEEIACDGLLLRESSTGPHSCTLVFLLTYFFGMASSIWWVILSFTWFLAAGLKWGNEAITKHSQYFHLAAWLIPTVQSVAVLLLSAVDGDPILGICYVGNLNPDHLKTFVLAPLFVYLVIGTTFLMAGFVSLFRIRSVIKQQGGVGAGVKADKLEKLMIRIGIFSVLYTVPATIVIGCYLYEAAYFEDWIKALACPCAQVKGPGKKPLYSVLMLKYFMALAVGITSGVWIWSGKTLESWRRFWRRLLGAPDRTGANQALIKQRPPIPHPYAGSGMGMPVGSAAGSLLATPYTQAGGASVASTSHHHLHHHVLKQPAASHV
